Data as given in the supplement of paper PMC12067093, “Discovery and optimisation of a covalent ligand for TRIM25 and its application to targeted protein ubiquitination” (Chemical Science, 2025).
This is one part of the list.

Protein sequences, listed by entry. Tags and fused reporters are not part of them. Lines headed by an entry give the natural chain unless they say otherwise; changes in a name come on top.
UniProt P05091: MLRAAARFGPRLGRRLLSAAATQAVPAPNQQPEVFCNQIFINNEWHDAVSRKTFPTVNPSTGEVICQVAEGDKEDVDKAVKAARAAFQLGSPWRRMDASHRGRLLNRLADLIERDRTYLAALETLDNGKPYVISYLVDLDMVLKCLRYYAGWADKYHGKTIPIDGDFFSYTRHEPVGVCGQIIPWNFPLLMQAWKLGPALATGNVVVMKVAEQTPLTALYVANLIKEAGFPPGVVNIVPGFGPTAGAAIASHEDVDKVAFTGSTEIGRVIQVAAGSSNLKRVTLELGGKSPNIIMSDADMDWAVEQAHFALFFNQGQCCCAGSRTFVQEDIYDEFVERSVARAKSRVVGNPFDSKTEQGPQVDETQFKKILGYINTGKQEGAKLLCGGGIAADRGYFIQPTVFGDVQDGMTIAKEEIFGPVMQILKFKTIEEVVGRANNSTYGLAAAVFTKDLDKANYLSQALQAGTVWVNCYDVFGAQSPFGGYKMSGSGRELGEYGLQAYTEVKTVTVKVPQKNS
UniProt P13196: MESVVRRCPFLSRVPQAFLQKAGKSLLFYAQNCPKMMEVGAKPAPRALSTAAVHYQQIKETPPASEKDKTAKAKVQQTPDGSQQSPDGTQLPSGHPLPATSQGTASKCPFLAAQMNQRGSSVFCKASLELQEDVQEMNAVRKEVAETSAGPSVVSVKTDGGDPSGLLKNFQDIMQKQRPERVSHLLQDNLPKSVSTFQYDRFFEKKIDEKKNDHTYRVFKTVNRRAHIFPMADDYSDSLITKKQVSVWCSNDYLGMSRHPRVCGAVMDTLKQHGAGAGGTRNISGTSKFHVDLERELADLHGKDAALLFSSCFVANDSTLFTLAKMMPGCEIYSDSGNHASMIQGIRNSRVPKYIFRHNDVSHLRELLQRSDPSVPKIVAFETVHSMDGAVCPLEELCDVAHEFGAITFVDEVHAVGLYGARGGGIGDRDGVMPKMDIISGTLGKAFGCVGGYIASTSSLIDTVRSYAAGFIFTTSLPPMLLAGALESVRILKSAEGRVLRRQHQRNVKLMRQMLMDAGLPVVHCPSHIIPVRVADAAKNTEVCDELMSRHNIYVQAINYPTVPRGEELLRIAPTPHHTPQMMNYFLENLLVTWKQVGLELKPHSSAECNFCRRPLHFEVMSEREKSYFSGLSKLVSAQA
UniProt Q9P2R3: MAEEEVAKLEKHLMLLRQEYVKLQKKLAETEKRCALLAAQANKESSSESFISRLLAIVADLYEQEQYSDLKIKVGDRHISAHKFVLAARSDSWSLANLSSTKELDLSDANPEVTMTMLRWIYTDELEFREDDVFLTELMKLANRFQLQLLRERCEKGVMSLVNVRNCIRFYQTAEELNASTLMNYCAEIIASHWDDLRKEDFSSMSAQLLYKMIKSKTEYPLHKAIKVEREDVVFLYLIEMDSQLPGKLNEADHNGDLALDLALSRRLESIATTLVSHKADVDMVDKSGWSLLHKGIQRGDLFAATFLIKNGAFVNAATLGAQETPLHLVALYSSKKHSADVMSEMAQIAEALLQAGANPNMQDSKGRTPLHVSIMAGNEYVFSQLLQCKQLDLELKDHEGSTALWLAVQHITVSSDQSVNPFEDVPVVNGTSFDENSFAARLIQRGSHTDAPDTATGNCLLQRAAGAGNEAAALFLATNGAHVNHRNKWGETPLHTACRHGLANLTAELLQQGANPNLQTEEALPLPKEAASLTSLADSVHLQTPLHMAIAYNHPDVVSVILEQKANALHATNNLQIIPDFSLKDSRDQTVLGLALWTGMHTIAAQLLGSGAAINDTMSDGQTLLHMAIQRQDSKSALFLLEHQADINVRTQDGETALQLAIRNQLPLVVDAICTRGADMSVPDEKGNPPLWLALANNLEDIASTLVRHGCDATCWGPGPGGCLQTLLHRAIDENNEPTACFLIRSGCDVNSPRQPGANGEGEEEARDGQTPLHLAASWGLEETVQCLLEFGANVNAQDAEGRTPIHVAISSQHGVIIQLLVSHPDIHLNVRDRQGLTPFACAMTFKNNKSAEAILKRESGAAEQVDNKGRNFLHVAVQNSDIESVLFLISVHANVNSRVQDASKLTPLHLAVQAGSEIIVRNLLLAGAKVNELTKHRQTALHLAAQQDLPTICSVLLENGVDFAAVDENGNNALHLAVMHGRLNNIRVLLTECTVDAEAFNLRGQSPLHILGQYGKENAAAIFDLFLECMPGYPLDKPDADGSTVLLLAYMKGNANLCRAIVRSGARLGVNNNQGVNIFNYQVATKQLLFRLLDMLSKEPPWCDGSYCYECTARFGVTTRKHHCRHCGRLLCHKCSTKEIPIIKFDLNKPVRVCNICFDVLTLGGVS
UniProt Q9NYG5, whole entry, looked up: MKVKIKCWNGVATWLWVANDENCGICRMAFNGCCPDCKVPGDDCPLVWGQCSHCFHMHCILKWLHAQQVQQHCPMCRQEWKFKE
UniProt O43823: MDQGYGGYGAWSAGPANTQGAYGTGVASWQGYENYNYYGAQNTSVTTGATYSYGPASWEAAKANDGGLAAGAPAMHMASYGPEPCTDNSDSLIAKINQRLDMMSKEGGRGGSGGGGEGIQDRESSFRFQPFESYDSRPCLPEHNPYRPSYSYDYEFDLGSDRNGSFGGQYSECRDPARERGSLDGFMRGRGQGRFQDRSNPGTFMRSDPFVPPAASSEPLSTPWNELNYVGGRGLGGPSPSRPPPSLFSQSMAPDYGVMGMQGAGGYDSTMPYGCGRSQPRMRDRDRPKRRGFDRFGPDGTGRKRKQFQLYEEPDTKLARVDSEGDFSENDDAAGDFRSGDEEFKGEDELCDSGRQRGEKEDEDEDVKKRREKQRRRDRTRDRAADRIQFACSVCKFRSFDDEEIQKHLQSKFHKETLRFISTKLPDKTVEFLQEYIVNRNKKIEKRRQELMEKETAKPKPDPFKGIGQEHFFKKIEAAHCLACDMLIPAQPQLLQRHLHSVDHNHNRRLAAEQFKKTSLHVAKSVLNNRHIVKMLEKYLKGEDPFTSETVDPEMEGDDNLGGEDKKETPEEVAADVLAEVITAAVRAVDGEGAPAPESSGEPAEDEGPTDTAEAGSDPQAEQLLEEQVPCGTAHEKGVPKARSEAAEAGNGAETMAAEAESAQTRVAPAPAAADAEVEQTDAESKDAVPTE
UniProt Q96Q83: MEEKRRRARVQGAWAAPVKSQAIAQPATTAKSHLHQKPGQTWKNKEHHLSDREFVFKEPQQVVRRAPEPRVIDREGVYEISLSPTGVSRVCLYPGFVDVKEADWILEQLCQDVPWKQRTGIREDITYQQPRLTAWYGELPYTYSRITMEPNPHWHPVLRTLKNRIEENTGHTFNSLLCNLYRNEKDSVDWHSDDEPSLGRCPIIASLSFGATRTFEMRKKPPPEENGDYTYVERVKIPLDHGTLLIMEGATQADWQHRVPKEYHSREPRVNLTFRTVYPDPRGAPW
UniProt Q13686: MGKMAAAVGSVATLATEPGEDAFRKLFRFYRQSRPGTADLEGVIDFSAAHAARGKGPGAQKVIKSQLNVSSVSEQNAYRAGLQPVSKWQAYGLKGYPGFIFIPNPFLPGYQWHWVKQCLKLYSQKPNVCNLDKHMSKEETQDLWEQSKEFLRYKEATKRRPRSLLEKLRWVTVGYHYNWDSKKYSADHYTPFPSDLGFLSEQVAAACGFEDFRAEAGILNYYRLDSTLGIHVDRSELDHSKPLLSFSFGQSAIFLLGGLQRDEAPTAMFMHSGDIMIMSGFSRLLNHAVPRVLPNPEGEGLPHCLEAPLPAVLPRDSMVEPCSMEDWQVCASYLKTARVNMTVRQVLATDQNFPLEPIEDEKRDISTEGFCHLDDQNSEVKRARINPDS
UniProt P49189: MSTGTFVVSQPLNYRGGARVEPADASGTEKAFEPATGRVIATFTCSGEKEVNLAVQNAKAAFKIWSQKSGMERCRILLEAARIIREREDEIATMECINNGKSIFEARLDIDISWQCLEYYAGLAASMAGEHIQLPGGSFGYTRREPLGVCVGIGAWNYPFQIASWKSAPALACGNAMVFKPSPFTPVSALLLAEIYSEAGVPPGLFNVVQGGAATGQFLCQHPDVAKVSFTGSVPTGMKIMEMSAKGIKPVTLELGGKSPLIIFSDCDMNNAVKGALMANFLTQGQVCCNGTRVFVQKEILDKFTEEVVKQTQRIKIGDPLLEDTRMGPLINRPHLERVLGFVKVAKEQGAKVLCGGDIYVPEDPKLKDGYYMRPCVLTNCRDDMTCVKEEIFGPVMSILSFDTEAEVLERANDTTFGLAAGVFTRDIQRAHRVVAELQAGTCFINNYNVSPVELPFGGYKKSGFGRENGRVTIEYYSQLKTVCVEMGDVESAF
UniProt P54886: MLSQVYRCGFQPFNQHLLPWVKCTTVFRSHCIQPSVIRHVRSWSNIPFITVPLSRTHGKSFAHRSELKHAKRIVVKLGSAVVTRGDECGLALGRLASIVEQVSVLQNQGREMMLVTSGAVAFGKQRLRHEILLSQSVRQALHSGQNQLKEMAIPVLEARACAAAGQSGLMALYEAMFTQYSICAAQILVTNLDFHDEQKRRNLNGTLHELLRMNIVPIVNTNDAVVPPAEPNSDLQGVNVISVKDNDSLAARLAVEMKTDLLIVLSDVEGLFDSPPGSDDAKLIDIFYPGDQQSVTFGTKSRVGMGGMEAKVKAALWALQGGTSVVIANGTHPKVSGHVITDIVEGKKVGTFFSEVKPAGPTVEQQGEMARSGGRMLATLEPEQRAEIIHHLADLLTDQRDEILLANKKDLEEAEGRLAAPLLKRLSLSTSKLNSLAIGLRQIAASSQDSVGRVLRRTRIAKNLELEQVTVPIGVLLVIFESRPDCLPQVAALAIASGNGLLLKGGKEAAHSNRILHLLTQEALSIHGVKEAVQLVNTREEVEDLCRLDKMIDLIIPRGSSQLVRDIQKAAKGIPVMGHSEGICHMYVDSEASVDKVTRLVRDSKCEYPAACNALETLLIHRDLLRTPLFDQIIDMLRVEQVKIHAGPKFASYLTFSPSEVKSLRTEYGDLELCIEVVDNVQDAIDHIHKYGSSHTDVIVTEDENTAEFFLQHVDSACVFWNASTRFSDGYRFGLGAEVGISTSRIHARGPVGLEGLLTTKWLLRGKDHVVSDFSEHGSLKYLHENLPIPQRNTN
UniProt P04075: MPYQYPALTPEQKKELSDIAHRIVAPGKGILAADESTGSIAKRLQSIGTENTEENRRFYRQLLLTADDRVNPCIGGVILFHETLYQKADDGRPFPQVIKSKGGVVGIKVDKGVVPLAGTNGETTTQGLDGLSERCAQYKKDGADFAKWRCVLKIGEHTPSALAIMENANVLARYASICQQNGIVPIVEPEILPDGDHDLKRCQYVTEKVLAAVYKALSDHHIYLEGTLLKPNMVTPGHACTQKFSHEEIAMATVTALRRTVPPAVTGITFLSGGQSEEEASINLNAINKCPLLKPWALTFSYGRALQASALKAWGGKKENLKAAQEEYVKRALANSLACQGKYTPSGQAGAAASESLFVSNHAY
UniProt Q01433: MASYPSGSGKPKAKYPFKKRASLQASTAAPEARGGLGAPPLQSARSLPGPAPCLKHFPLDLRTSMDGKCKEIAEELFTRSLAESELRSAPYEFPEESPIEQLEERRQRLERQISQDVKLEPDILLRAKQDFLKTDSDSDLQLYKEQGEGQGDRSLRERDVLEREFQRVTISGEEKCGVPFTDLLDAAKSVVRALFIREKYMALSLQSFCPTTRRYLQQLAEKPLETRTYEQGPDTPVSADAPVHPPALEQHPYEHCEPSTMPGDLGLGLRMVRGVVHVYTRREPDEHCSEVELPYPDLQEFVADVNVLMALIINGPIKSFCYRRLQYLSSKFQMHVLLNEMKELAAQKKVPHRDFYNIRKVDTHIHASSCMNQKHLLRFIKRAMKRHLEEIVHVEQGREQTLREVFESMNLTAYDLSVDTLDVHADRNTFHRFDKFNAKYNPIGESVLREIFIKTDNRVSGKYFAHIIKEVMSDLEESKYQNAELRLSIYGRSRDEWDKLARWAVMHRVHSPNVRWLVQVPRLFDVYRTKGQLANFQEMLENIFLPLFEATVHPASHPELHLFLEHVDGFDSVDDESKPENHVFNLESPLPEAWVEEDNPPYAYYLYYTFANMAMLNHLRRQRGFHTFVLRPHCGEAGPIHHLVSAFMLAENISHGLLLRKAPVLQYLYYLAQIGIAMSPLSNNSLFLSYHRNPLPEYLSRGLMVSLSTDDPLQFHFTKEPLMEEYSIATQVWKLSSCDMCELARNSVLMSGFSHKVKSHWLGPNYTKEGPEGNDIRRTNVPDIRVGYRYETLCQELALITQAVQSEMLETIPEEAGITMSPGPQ
UniProt O95433, whole entry, looked up: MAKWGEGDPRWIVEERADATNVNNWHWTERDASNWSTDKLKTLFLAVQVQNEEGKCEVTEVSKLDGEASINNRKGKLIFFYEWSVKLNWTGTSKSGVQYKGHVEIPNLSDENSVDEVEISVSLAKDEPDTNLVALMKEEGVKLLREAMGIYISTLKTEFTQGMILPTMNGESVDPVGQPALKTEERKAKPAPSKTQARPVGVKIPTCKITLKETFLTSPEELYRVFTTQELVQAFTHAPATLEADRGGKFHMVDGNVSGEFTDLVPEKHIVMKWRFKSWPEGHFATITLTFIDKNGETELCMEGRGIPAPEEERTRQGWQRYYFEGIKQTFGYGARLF

Compound: Cc1cc(ccc1-c1ccccc1)C(=O)N1CCCN(CC1)C(=O)CCl [compound 10]
Assay: probe-labelled cysteine peptide fold change vs DMSO (competition) (log2 fold change); higher = less target engagement (more negative = stronger competition)
Details: THP-1, incubation time: 4 h
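Further: competitive profiling in live THP-1 cells: cysteine peptides tagged with an iodoacetamide desthiobiotin (IA-DTB) probe, intensity after compound treatment relative to DMSO-treated cells.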

| Target | probe-labelled cysteine peptide fold change (10 µM) | probe-labelled cysteine peptide fold change (50 µM) |
| --- | --- | --- |
| AKR1A1_P14550_46_HIDCAAIYGNEPEIGEALK (UniProt P14550) | 0.0263 | 0.0157 |
| ALDH2_P05091_179_HEPVGVCGQIIPWNFPLLMQAWK (UniProt P05091) | 0.0924 | 0.164 |
| ANKHD1_Q8IWZ3_1308_FCELLIHR (UniProt Q8IWZ3) | 0.116 | -0.00815 |
| AKAP8L_Q9ULX6_487_KVEAAHCAACDLFIPMQFGIIQK (UniProt Q9ULX6) | 0.0426 | -0.136 |
| ALAS1_P13196_124_GSSVFCK (UniProt P13196) | 0.407 | 0.365 |
| AKAP1_Q92667_389_EESCVPVHQK (UniProt Q92667) | -0.155 | 0.156 |
| ANKFY1_Q9P2R3_995_VLLTECTVDAEAFNLR (UniProt Q9P2R3) | 0.102 | -0.0106 |
| ALDH7A1_P49419_522_STCTINYSK (UniProt P49419) | 0.00826 | -0.164 |
| AHCYL2_Q96HN2_454_QVDIVITCTGNK (UniProt Q96HN2) | 0.0592 | 0.000534 |
| ANAPC11_Q9NYG5_51_VPGDDCPLVWGQCSHCFHMHCILK (UniProt Q9NYG5) | 0.0232 | -0.207 |
| AKAP8_O43823_392+395_IQFACSVCK (UniProt O43823) | 0.155 | -0.372 |
| ALG11_Q2TAA5_72_NQMVIAFFHPYCNAGGGGER (UniProt Q2TAA5) | 0.0627 | -0.603 |
| ALAD_P13716_162_AGCQVVAPSDMMDGR (UniProt P13716) | 0.0174 | 0.0599 |
| ANAPC7_Q9UJX3_451_TLGANAQTLTLLATVCLEDPVTQEK (UniProt Q9UJX3) | 0.139 | 0.314 |
| ALOX5_P09917_450_DLTYASLCFPEAIK (UniProt P09917) | -0.0604 | -0.0172 |
| AK6_Q9Y3D8_81_EGGVIVDYHGCDFFPER (UniProt Q9Y3D8) | 0.127 | 0.272 |
| ANKFY1_Q9P2R3_389_TPLHVSIMAGNEYVFSQLLQCK (UniProt Q9P2R3) | 0.123 | 0.15 |
| AKAP8_O43823_395_IQFACSVCK (UniProt O43823) | 0.0747 | -0.348 |
| AKAP9_Q99996_1367_ETEQNYEAEIHCLQK (UniProt Q99996) | -0.169 | -0.14 |
| ALKBH3_Q96Q83_201_CPIIASLSFGATR (UniProt Q96Q83) | 0.189 | -0.104 |
| AMBRA1_Q9C0C7_1036_GDLVICRPEALNSGVEYYWDQLNETVFTVHSNSR (UniProt Q9C0C7) | -0.016 | 0.16 |

| Target | probe-labelled cysteine peptide fold change (10 µM) | probe-labelled cysteine peptide fold change (50 µM) |
| --- | --- | --- |
| ANAPC10_Q9UM13_78_TLCIYADYK (UniProt Q9UM13) | 0.119 | 0.486 |
| AGO2_Q9UKV8_787_FSSDELQILTYQLCHTYVR (UniProt Q9UKV8) | 0.36 | 0.31 |
| ALKBH1_Q13686_304_VLPNPEGEGLPHCLEAPLPAVLPR (UniProt Q13686) | -0.152 | 0.16 |
| ALDH9A1_P49189_288+289_GALMANFLTQGQVCCNGTR (UniProt P49189) | 0.182 | 0.0492 |
| ANAPC5_Q9UJX4_670_CQVASAASYDQPK (UniProt Q9UJX4) | 0.0716 | -0.00822 |
| ALDH18A1_P54886_584_GIPVMGHSEGICHMYVDSEASVDK (UniProt P54886) | -0.172 | -0.241 |
| ANKFY1_Q9P2R3_499_WGETPLHTACR (UniProt Q9P2R3) | 0.0766 | 0.0399 |
| ALAS1_P13196_544_NTEVCDELMSR (UniProt P13196) | 0.185 | 0.327 |
| ALG2_Q9H553_137_ILFYCHFPDLLLTK (UniProt Q9H553) | 0.19 | 0.403 |
| ALDH9A1_P49189_45_VIATFTCSGEK (UniProt P49189) | -0.00832 | 0.0216 |
| ANAPC4_Q9UJX5_553_SMNQAICIPLYR (UniProt Q9UJX5) | 0.0453 | -0.0875 |
| ALDOA_P04075_73_QLLLTADDRVNPCIGGVILFHETLYQK (UniProt P04075) | 0.113 | -0.0442 |
| ALDH18A1_P54886_88_GDECGLALGR (UniProt P54886) | -0.167 | -0.808 |
| AKAP17A_Q02040_563_GIPACEQNVSR (UniProt Q02040) | -0.268 | -0.209 |
| AIMP1_Q12904_284_IWEQIQPDLHTNDECVATYK (UniProt Q12904) | -0.256 | 0.333 |
| AKR7A2_O43488_132+156_RLQCPQVDLFYLHAPDHGTPVEETLHACQR (UniProt O43488) | -0.245 | -0.374 |
| AMPD2_Q01433_230_CGVPFTDLLDAAK (UniProt Q01433) | -0.00293 | -0.258 |
| AIFM1_O95831_441_SNIWVAGDAACFYDIK (UniProt O95831) | -0.00471 | 0.203 |
| AHSA1_O95433_56_CEVTEVSK (UniProt O95433) | -0.108 | 0.37 |
| AKR1A1_P14550_187+200_QIDDILSVASVRPAVLQVECHPYLAQNELIAHCQAR (UniProt P14550) | -0.0187 | -0.0103 |
